This data set has as its target FLAG-p53 (UniProt P04637). The experiment in a line: EMSA. The note with it: FLAG-p53 12.5 nM, 10 mM Tris-HCl pH 7.4, 2.5 mM DTT, 0.05% NP-40, 10 min preincubation with chelator at 37 °C, then 3 h with probe at 37 °C, electrophoresis at 4 °C, recombinant protein, protein details: FLAG, label: FITC.

For at least one entry, the source does not settle the construct or the ends of the probe. Weaker means in comparison with the reference protein, sequence or condition of that experiment. At least one verdict rests on a figure or table, not on a statement of the authors.

Turning to “GGACATGCCCGGGCATGTCC (double strand) [p53 consensus probe]”, the binding result is reported as “binds more weakly” (Bispicen (Zn(II) chelator) preincubated, inhibits); “binds more weakly” (Cyclen (Zn(II) chelator) preincubated, inhibits); “binds more weakly” (TPA (Zn(II) chelator) preincubated, inhibits); “binds more weakly” (TPEN (Zn(II) chelator) preincubated, inhibits); “binds” (no chelator).

The values above are taken from publication PMC3926839.
